For at least one entry, the source does not settle the construct or the ends of the probe. For some assays here: A negative result means that nothing was seen under these conditions. For some assays here: At least one verdict rests on a figure or table, not on a statement of the authors. For some assays here: A weaker result is weaker than the reference pair of the same experiment.

Series [1] relates to GST-MabHLH28 (banana (Musa)). Briefly: competition with a labelled probe. Particulars: unlabelled mutant 200x/1000x; Chemiluminescent EMSA kit (Thermo) per manufacturer; pH and temperature not stated; recombinant protein; protein details: GST (N-terminal, pGEX-4T-1); label: 3' biotin, unlabelled as competitor. On the technique in general: Mobility shift assays separate free from complexed probe on a gel.

Series [2] relates to GST-MabHLH28 (banana (Musa)). The series can be described thus: EMSA. Particulars: Chemiluminescent EMSA kit (Thermo) per manufacturer, pH and temperature not stated, recombinant protein, protein details: GST (N-terminal, pGEX-4T-1), label: 3' biotin.
The test system of series [3] is GST-MaWRKY111 (banana (Musa)). The series can be described thus: EMSA. Particulars: Chemiluminescent EMSA kit (Thermo) per manufacturer; pH and temperature not stated; recombinant protein; protein details: GST (N-terminal, pGEX-4T-1); label: 3' biotin.
Series [4] deals with GST-MaWRKY49C (banana (Musa)). Briefly: EMSA. Particulars: Chemiluminescent EMSA kit (Thermo) per manufacturer; pH and temperature not stated; recombinant protein; protein details: GST (N-terminal, pGEX-4T-1); label: 3' biotin.

Regarding “AAGTCTCACCTCTCACGCCAAAAAAAAAAAACAAGTCATCTCCCTTTCTG (double strand) [MaEXP2 mprobe]”, the binding result in series [1] is given as “no binding”; in series [2] (unlabelled as competitor), “binds more weakly”.

For the sequence “AAGTCTCACCTCTCACGCCACGCACGAGTCACAAGTCATCTCCCTTTCTG (double strand) [MaEXP2 probe]”, the binding result in series [2] is “binds”.

With “ACCTATGAGAATAGCCTTAAAAAGTCAATGTGAGCTTTAGAACCAACGT / TACGTTGGTTCTAAAGCTCACATTGACTTTTTAAGGCTATTCTCATAGGT [MaEXPA2 W-box probe]”, the binding result in series [3] and in series [4] was “binds” in each case.

As to “CATACACATACACGTTTGAAGCGGTCAAAGCTGCAAATTCTCGTTTCTCTT (double strand) [MaPE1 W-box probe]”, the binding result in series [3] and in series [4] was “binds” throughout.

For the sequence “CATGTTCATGCCTCTGATGTTTTTGACTGACAGCTGTGTTGCTTGACATC (double strand) [MaPG3 W-box probe]”, the binding result in series [3] and in series [4] was “binds” each time.

On to “CGCAGGTCTTATAGTTGCGTGAAGTCAACGTAGACTAAACGCCCAACACA (double strand) [MaEXP2 W-box probe]”, for which the binding result in series [3] and in series [4] was “binds” throughout.

Consider “CTGCCGCGAGAGAGTCAAAGACGGTGGGTAAGTTTGACCCATCCTTTCCG (double strand) [MaEXP1 W-box probe]”, for which the binding result in series [3] and in series [4] was “binds” throughout.

With “CTTGAGGGCATGGTGGTTTGGTAGTCAAATCTACTAAAAGATGAACGGAG (double strand) [MaPL5 W-box probe]”, the binding result in series [3] and in series [4] was “binds” each time.

On to “GAATATGCTTGCCGCTTTCATGTGATCAATTGAATTGTTTGCTTGCTTCA (double strand) [MaACO1 probe]”, for which, in series [2], the binding result was “binds”.

With “GACCTCCGTCAGACTCCTTTAACATATGTTAAACAACTTGAATCTAATTT (double strand) [MaACS1 probe]”, the binding result in series [2] is listed as “binds”.

“GAGGATTTGGAAAAAAAAAACATGTTGCAAAAAAAAAAAAACCTACTGCT (double strand) [MaPL8 mprobe]”: the binding result in series [1] was “no binding”; in series [2] (unlabelled as competitor) it was “binds more weakly”.

Turning to “GAGGATTTGGCGCACGAGGTCATGTTGCATGCATGTGCAAACCTACTGCT (double strand) [MaPL8 probe]”, the binding result in series [2] is “binds”.

On to “GCTCTGCGGCCGAAAGCCATAAAAAAAAAAGTGCAGTGCCGTGAACACCC (double strand) [MaPL5 mprobe]”, for which the binding result in series [1] is “no binding”; in series [2] (unlabelled as competitor), “binds more weakly”.

As for “GCTCTGCGGCCGAAAGCCATCCCATGTGCTGTGCAGTGCCGTGAACACCC (double strand) [MaPL5 probe]”, the binding result in series [2] was “binds”.

For the sequence “GCTGGATGGAGCCTTTTTCCTTGGTCAATTATACGAATGAATGAATGGCT (double strand) [MaLSF2 W-box probe]”, the binding result in series [3] and in series [4] was “binds” each time.

Turning to “GCTTTTGTTACCGCAAAAAAAAAATTAAAAAAAAAAGTGGGTCGACGCAT (double strand) [MaEXPA15 mprobe]”, the binding result in series [1] is on record as “no binding”; in series [2] (unlabelled as competitor) it was “binds more weakly”.

For the sequence “GCTTTTGTTACCGCGGCATGTGGCTTCCCATGTGCGGTGGGTCGACGCAT (double strand) [MaEXPA15 probe]”, the binding result in series [2] is on record as “binds”.

With “GGCAGCCCGGAATAAAAAAAAAACCTCAAAAAAAAAAGGGACAGTCCGTA (double strand) [MaEXP1 mprobe]”, the binding result in series [1] is reported as “no binding”; in series [2] (unlabelled as competitor), “binds more weakly”.

In the case of “GGCAGCCCGGAATAGCATGTGCTCCTCCTCACATGGTGGGACAGTCCGTA (double strand) [MaEXP1 probe]”, the binding result in series [2] was “binds”.

For the sequence “TAAAAAAAAAAGGTTAAGCCCGAAATATTAGAACTCGACAAAAAAAAAAC (double strand) [MaLSF2 mprobe]”, the binding result in series [1] is recorded as “no binding”; in series [2] (unlabelled as competitor) it was “binds more weakly”.

For the sequence “TAACTTAGGACAGTAACATGAAAAAAAAAAATTGGTAGTACTTGTGTACC (double strand) [MaPG3 mprobe]”, the binding result in series [1] is recorded as “no binding”; in series [2] (unlabelled as competitor), “binds more weakly”.

Regarding “TAACTTAGGACAGTAACATGGCCATGTGATATTGGTAGTACTTGTGTACC (double strand) [MaPG3 probe]”, in series [2], the binding result was “binds”.

“TATCACGTGCGGGTTAAGCCCGAAATATTAGAACTCGACGACATGTGCTC (double strand) [MaLSF2 probe]”: the binding result in series [2] is on record as “binds”.

Turning to “TCAGCGAAAAAAAAAATGCGTCGTTTGTCATGAAAAAAAAAAAATGTATA (double strand) [MaPE1 mprobe]”, the results for the binding result in series [1] and in series [2] (unlabelled as competitor) were “no binding” and “binds more weakly”, respectively.

For “TCAGCGTTCACATGCATGCGTCGTTTGTCATGAAACCACGTGGATGTATA (double strand) [MaPE1 probe]”, the binding result in series [2] is on record as “binds”.

For the sequence “TGGCAATTTGGAAGTGCTGAAAAAAAAAAACATTATTAGACTCATTGTTT (double strand) [MaEXPA2 mprobe]”, the binding result in series [1] is listed as “no binding”; in series [2] (unlabelled as competitor), “binds more weakly”.

For the sequence “TGGCAATTTGGAAGTGCTGACACACGTGTTCATTATTAGACTCATTGTTT (double strand) [MaEXPA2 probe]”, in series [2], the binding result was “binds”.

Consider “TTCTCTTCCACTACCAGCACAAAAAAAAAAAAATCCGGTTCACTCCGCCC (double strand) [MaGWD1 mprobe]”, for which the binding result in series [1] is listed as “no binding”; in series [2] (unlabelled as competitor), “binds more weakly”.

As to “TTCTCTTCCACTACCAGCACACCACGTGGTAAATCCGGTTCACTCCGCCC (double strand) [MaGWD1 probe]”, in series [2], the binding result was “binds”.

Turning to “TTCTGACTCTAATTAACGAGTCCTTAATGTTGTGGACTTATAAGTCAAAC (double strand) [MaPL8 W-box probe]”, the binding result in series [3] and in series [4] was “binds” in each case.

For the sequence “TTTCTTGACTCAACTGCAGGCAGTCAAAACGAAGAACTTTGGTCAGTAAG (double strand) [MaEXPA15 W-box probe]”, the binding result in series [3] and in series [4] was “binds” in each case.

For the origin of these results see PMC11069428.
